Values quoted from earlier work, collected in patent publication US11786515B2, “Anesthetic mixtures formulations for local anesthesia, at very low concentration, to be used cold with suitable packaging” (L. MOLTENI & C. DEI FRATELLI ALITTI-SOCIETA′ DI ESERCIZIO …, priority 2018, dated 2023).
Where a name gives a salt, the structure may show the parent alone.

Details: cited from earlier work

For `CCN(CC)CC(=O)Nc1c(C)cccc1C` [Lidocaine, Lidocaine hydrochloride], the “toxic dose, total not to be exceeded” value (if used alone) is given as no more than 300 mg and the “dosage usable without risk of toxic response” value (molecule in a cold and diluted solution) is given as “higher than 1 gram”.
